Measured values as given in PMC3841102, “Activation of Smurf E3 Ligase Promoted by Smoothened Regulates Hedgehog Signaling through Targeting Patched Turnover” (PLoS Biology, 2013).
Residue numbers refer to the chain shown, from its start. Where two headings read alike, the source gives them in different places. Results are given in words; binding and its absence hold for the method and conditions named. For part of these data: Binding seen in cells or lysates may run through a third protein. Some binding calls cover weakened binding; strength is not graded here. Where a sequence is shown, tags or fusion partners need not be part of it. Each block holds one molecule with its values, some of them ahead of it.

Protein sequences, listed by entry. Tags and fused reporters are not part of them.
UniProt Q9Y0H4: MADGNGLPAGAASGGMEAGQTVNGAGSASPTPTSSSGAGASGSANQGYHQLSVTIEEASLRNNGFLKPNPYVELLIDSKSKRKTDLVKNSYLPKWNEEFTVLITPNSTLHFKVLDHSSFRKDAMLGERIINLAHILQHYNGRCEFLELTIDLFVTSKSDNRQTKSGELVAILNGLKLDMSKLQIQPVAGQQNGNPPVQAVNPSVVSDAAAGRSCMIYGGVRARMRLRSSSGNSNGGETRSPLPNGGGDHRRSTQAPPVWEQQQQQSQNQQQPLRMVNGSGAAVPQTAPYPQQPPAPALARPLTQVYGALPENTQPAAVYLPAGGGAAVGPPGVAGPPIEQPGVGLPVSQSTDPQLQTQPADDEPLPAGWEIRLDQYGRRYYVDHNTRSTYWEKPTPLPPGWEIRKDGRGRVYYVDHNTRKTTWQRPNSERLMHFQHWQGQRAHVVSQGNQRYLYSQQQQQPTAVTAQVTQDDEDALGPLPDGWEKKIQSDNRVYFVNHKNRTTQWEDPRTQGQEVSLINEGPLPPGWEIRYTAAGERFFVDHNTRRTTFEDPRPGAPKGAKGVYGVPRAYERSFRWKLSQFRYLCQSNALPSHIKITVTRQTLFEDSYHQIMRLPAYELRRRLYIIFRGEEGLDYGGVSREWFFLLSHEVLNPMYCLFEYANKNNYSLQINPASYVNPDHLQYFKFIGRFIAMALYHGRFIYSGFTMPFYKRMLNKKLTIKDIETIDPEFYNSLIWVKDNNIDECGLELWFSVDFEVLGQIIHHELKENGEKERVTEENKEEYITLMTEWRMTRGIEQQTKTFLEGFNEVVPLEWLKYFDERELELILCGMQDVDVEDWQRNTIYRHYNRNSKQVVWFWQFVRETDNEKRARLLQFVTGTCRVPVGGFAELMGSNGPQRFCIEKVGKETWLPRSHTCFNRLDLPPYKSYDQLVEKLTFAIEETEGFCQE

Key:
[1] = target: T1, Ptc^CTD (two-hybrid fusion) (Drosophila) (UniProt P18502); experiment: two-hybrid; AH109 yeast; bait vector pGBKT7, prey vector pACT2; growth on permissive (-Leu/-Trp) and restrictive (-Ade/-His/-Leu/-Trp) medium
T1 sequence: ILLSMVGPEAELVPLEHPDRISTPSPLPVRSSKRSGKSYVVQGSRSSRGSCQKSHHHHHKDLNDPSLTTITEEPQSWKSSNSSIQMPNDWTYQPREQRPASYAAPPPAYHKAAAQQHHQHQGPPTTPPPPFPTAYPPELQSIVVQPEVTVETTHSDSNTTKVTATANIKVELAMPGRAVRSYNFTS

[2] = target: T1, Ptc^CTD (two-hybrid fusion) (Drosophila); experiment: as above; remark: listed apart in the source
[3] = target: Suppressor of deltex (Su(dx)), tagged, in S2 cells (Drosophila) (UniProt Q9Y0H4); experiment: co-IP; transfected S2 cells, lysates after 48 h; anti-Flag M2 affinity gel or anti-Myc affinity gel; NaCl adjusted to 500 mM, washes with 500 mM NaCl; Western blot; for Smo with Smurf (Figure 5C,D) cells treated with Hh medium for 12 h
[4] = target: T2, Flag-tagged Smurf^C1029A (catalytic dead form of Smurf) (Drosophila) (UniProt Q9V853); experiment: as above
T2 sequence: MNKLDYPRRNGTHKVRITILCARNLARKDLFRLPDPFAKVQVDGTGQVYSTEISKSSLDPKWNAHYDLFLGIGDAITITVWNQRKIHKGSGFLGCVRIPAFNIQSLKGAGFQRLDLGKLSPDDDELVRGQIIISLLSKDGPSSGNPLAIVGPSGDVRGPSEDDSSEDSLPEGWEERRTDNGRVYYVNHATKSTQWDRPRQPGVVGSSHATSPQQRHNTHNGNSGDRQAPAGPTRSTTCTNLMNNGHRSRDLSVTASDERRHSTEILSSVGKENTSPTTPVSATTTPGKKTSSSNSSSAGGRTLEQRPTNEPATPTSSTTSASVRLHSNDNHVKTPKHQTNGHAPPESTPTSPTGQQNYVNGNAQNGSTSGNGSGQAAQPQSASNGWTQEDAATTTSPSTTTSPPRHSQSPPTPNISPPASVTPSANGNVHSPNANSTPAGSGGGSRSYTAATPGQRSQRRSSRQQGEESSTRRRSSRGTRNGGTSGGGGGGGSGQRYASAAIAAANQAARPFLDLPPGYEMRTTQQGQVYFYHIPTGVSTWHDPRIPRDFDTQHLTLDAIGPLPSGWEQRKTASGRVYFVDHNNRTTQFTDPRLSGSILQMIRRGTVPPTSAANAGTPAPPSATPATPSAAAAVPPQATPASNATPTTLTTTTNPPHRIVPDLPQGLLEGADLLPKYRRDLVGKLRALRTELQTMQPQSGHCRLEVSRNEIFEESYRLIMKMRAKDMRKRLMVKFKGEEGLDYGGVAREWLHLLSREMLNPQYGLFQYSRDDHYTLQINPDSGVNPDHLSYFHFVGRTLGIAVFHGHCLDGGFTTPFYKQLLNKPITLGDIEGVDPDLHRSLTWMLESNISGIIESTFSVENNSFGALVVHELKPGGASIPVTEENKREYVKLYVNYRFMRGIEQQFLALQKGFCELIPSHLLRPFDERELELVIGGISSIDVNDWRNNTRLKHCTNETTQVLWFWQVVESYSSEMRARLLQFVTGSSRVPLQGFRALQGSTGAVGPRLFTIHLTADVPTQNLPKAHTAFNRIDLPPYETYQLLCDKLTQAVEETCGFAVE

[5] = target: T3, Flag-tagged Smurf (Drosophila) (UniProt Q9V853); experiment: as above
T3 sequence: T2 sequence with A1029C

[6] = target: T4, Nedd4 (Drosophila), tagged, in S2 cells (Drosophila) (UniProt Q9VVI3); experiment: as above
T4 sequence: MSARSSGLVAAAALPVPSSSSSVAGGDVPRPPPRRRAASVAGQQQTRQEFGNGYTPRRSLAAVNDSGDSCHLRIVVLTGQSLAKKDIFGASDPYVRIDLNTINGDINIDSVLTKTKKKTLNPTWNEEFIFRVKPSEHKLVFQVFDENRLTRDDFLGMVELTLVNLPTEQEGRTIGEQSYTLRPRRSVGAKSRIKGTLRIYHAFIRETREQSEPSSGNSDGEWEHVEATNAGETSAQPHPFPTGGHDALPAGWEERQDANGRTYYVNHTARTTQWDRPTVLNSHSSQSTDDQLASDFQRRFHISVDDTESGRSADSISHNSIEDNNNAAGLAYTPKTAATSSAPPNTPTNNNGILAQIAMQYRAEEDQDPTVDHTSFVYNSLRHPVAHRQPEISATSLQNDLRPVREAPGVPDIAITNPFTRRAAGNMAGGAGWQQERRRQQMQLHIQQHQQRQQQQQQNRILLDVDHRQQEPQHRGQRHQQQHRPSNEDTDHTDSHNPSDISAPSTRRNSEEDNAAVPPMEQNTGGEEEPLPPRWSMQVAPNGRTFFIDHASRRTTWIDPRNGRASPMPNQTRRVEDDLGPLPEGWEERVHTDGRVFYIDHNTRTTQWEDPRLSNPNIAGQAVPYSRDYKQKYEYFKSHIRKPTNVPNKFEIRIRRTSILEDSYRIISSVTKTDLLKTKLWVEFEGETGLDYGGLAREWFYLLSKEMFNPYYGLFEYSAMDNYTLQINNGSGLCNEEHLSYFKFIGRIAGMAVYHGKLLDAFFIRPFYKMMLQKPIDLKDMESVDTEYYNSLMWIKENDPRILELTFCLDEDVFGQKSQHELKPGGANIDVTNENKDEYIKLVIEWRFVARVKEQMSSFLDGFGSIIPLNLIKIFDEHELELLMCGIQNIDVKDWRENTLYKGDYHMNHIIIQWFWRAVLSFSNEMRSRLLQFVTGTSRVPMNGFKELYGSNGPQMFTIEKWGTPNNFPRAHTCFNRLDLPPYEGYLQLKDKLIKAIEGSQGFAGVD

binding [1]: binds
Molecule: Su(dx) (two-hybrid fusion) (from UniProt Q9Y0H4 1-949) (enzyme)

binding [2]: binds
B1: Nedd4 (two-hybrid fusion) (enzyme, UniProt Q9VVI3 1-1007)
chain: T4 sequence

binding [3]: binds
binding [4]: binds
binding [5]: binds
binding [6]: binds
B2: Myc-tagged Ptc (full-length Patched) (receptor, UniProt P18502 1-1286)
chain: MDRDSLPRVPDTHGDVVDEKLFSDLYIRTSWVDAQVALDQIDKGKARGSRTAIYLRSVFQSHLETLGSSVQKHAGKVLFVAILVLSTFCVGLKSAQIHSKVHQLWIQEGGRLEAELAYTQKTIGEDESATHQLLIQTTHDPNASVLHPQALLAHLEVLVKATAVKVHLYDTEWGLRDMCNMPSTPSFEGIYYIEQILRHLIPCSIITPLDCFWEGSQLLGPESAVVIPGLNQRLLWTTLNPASVMQYMKQKMSEEKISFDFETVEQYMKRAAIGSGYMEKPCLNPLNPNCPDTAPNKNSTQPPDVGAILSGGCYGYAAKHMHWPEELIVGGAKRNRSGHLRKAQALQSVVQLMTEKEMYDQWQDNYKVHHLGWTQEKAAEVLNAWQRNFSREVEQLLRKQSRIATNYDIYVFSSAALDDILAKFSHPSALSIVIGVAVTVLYAFCTLLRWRDPVRGQSSVGVAGVLLMCFSTAAGLGLSALLGIVFNAASTQVVPFLALGLGVDHIFMLTAAYAESNRREQTKLILKKVGPSILFSACSTAGSFFAAAFIPVPALKVFCLQAAIVMCSNLAAALLVFPAMISLDLRRRTAGRADIFCCCFPVWKEQPKVAPPVLPLNNNNGRGARHPKSCNNNRVPLPAQNPLLEQRADIPGSSHSLASFSLATFAFQHYTPFLMRSWVKFLTVMGFLAALISSLYASTRLQDGLDIIDLVPKDSNEHKFLDAQTRLFGFYSMYAVTQGNFEYPTQQQLLRDYHDSFVRVPHVIKNDNGGLPDFWLLLFSEWLGNLQKIFDEEYRDGRLTKECWFPNASSDAILAYKLIVQTGHVDNPVDKELVLTNRLVNSDGIINQRAFYNYLSAWATNDVFAYGASQGKLYPEPRQYFHQPNEYDLKIPKSLPLVYAQMPFYLHGLTDTSQIKTLIGHIRDLSVKYEGFGLPNYPSGIPFIFWEQYMTLRSSLAMILACVLLAALVLVSLLLLSVWAAVLVILSVLASLAQIFGAMTLLGIKLSAIPAVILILSVGMMLCFNVLISLGFMTSVGNRQRRVQLSMQMSLGPLVHGMLTSGVAVFMLSTSPFEFVIRHFCWLLLVVLCVGACNSLLVFPILLSMVGPEAELVPLEHPDRISTPSPLPVRSSKRSGKSYVVQGSRSSRGSCQKSHHHHHKDLNDPSLTTITEEPQSWKSSNSSIQMPNDWTYQPREQRPASYAAPPPAYHKAAAQQHHQHQGPPTTPPPPFPTAYPPELQSIVVQPEVTVETTHSDSNTTKVTATANIKVELAMPGRAVRSYNFTS
